Results on four compounds are retold here after PubChem BioAssay AID248 (DTP/NCI, 2004).

The subject of the test is L1210 leukemia ip in BDF1 mice, survival T/C. The test is described as follows: NCI In Vivo Anticancer Drug Screen. Data for tumor model L1210 Leukemia (intraperitoneal) in B6D2F1 (BDF1) mice. The settings on record: T/C endpoint: mean survival time, higher T/C = longer survival.
Setting [1] is: dose: 500.0 mg/kg/injection, schedule: Q01DX Z (ip), vehicle: saline.

The list does not hold the whole screen: it covers a few groups of compounds. Not every dose and run of a compound is shown. T/C gives the treated animals as a percentage of the vehicle group. Where survival is the endpoint, this PubChem deposit counts one and a half times the control or more as active, and values a quarter to a half above the control carry no call in these data; other NCI protocols may use other cut-offs. Some T/C values are marked as having no survivor count here; that says nothing about deaths at the dose. Schedule codes are those of the source, read here as Q, the interval in days (D) or hours (H), X, the number of doses. Some entries were tested several times; the results are listed from low to high. Brackets with × say how often a value occurs here. Some schedules carry Z or #; the key to these is not given.

As for `Oc1ccc(N(CCCl)CCCl)cc1`, the T/C reads like this: (dose: 15.0 mg/kg/injection, schedule: Q01DX001 (ip), vehicle: carboxymethylcellulose (CMC)) 118 % of control [survivor count not shown]; (dose: 30.0 mg/kg/injection, schedule: Q01DX001 (ip), vehicle: carboxymethylcellulose (CMC)) 111 % of control [survivor count not shown].

As to `COP(=O)(O)N(CCCl)CCCl.NC1CCCCC1`, the T/C (dose: 62.5 mg/kg/injection, schedule: Q01DX010 (ip), vehicle: saline) is 98 % of control [survivor count not shown]; the T/C (dose: 125.0 mg/kg/injection, schedule: Q01DX010 (ip), vehicle: saline) is 113 % of control [survivor count not shown]; the T/C (dose: 250.0 mg/kg/injection, schedule: Q01DX010 (ip), vehicle: saline) was 129 % of control [survivor count not shown]; the T/C under setting [1] was 140 % of control [survivor count not shown]; the T/C (dose: 750.0 mg/kg/injection, schedule: Q01DX Z (ip), vehicle: saline) is 124 % of control [survivor count not shown].

On to `NP(=O)(N(CCCl)CCCl)N1CCCCC1` (stereo unspecified), for which the T/C runs as follows: (dose: 10.0 mg/kg/injection, schedule: Q01DX Z (ip), vehicle: saline) 95 % of control [survivor count not shown]; (dose: 30.0 mg/kg/injection, schedule: Q01DX Z (ip), vehicle: saline) 94 % of control [survivor count not shown]; (dose: 100.0 mg/kg/injection, schedule: Q01DX Z (ip), vehicle: saline) 101 % of control [survivor count not shown]; (dose: 250.0 mg/kg/injection, schedule: Q01DX Z (ip), vehicle: saline) 101 % of control [survivor count not shown]; (dose: 300.0 mg/kg/injection, schedule: Q01DX Z (ip), vehicle: saline) 96 % of control [survivor count not shown]; under setting [1], 90 % of control [survivor count not shown].

Turning to `OC1OC(CN(CCCl)CCCl)C(O)C1O` (stereo unspecified), the T/C (dose: 0.28 mg/kg/injection, schedule: Q01DX009 (ip), vehicle: saline) is 107 % of control [survivor count not shown]; the T/C (dose: 0.34 mg/kg/injection, schedule: Q04DX003 (ip), vehicle: saline) was 108 % of control [survivor count not shown]; the T/C (dose: 0.44 mg/kg/injection, schedule: Q04DX003 (ip), vehicle: acetone) is 120 % of control [survivor count not shown]; the T/C (dose: 0.52 mg/kg/injection, schedule: Q04DX003 (ip), vehicle: saline) is 116 % of control [survivor count not shown]; the T/C (dose: 0.57 mg/kg/injection, schedule: Q01DX009 (ip), vehicle: saline) is 117 % of control [survivor count not shown]; the T/C (dose: 0.67 mg/kg/injection, schedule: Q04DX003 (ip), vehicle: acetone) was 120 % of control [survivor count not shown]. Besides, the T/C (dose: 0.75 mg/kg/injection, schedule: Q04DX003 (ip), vehicle: saline) was 104 % of control [survivor count not shown]; the T/C (dose: 0.78 mg/kg/injection, schedule: Q04DX003 (ip), vehicle: saline) is 113 % of control [survivor count not shown]; the T/C (dose: 1.02 mg/kg/injection, schedule: Q04DX003 (ip), vehicle: saline) was 131 [survivor count not shown], 142 [survivor count not shown], 150 % of control [survivor count not shown]; the T/C (dose: 1.15 mg/kg/injection, schedule: Q01DX009 (ip), vehicle: saline) is 126 % of control [survivor count not shown]; the T/C (dose: 1.5 mg/kg/injection, schedule: Q04DX003 (ip), vehicle: saline) is 91 % of control [survivor count not shown]; the T/C (dose: 1.56 mg/kg/injection, schedule: Q04DX003 (ip), vehicle: saline) was 104 [survivor count not shown], 126 [survivor count not shown], 138 [survivor count not shown], 140 % of control [survivor count not shown]. For the same compound, the T/C was 139 % of control [survivor count not shown] (dose: 2.05 mg/kg/injection, schedule: Q01DX001 (ip), vehicle: saline); 119 % of control [survivor count not shown] (dose: 2.3 mg/kg/injection, schedule: Q01DX Z (ip), vehicle: methylcellulose (MC)); 127 [survivor count not shown] (2×) and 131 % of control [survivor count not shown] (dose: 2.34 mg/kg/injection, schedule: Q04DX003 (ip), vehicle: saline); 112 % of control [survivor count not shown] (dose: 3.0 mg/kg/injection, schedule: Q04DX003 (ip), vehicle: saline); 123 [survivor count not shown] and 134 % of control [survivor count not shown] (dose: 3.12 mg/kg/injection, schedule: Q01DX001 (ip), vehicle: saline); 138 % of control [survivor count not shown] (dose: 3.12 mg/kg/injection, schedule: Q04DX003 (ip), vehicle: saline). Moreover, the T/C runs as follows: (dose: 3.5 mg/kg/injection, schedule: Q01DX Z (ip), vehicle: carboxymethylcellulose (CMC)) 110 % of control [survivor count not shown]; (dose: 3.5 mg/kg/injection, schedule: Q01DX Z (ip), vehicle: methylcellulose (MC)) 117 % of control [survivor count not shown]; (dose: 4.68 mg/kg/injection, schedule: Q01DX001 (ip), vehicle: saline) 121 % of control [survivor count not shown]; (dose: 5.3 mg/kg/injection, schedule: Q01DX Z (ip), vehicle: carboxymethylcellulose (CMC)) 128 % of control [survivor count not shown]; (dose: 5.3 mg/kg/injection, schedule: Q01DX Z (ip), vehicle: methylcellulose (MC)) 126 [survivor count not shown] and 127 % of control [survivor count not shown]; (dose: 6.0 mg/kg/injection, schedule: Q04DX003 (ip), vehicle: saline) 134 % of control [survivor count not shown]. In addition, the T/C is, setting by setting: (dose: 6.25 mg/kg/injection, schedule: Q01DX001 (ip), vehicle: saline) 123 % of control [survivor count not shown]; (dose: 6.25 mg/kg/injection, schedule: Q04DX003 (ip), vehicle: saline) 129 % of control [survivor count not shown]; (dose: 8.0 mg/kg/injection, schedule: Q01DX Z (ip), vehicle: carboxymethylcellulose (CMC)) 112 % of control [survivor count not shown]; (dose: 8.0 mg/kg/injection, schedule: Q01DX Z (ip), vehicle: methylcellulose (MC)) 121 [survivor count not shown], 122 [survivor count not shown], 131 % of control [survivor count not shown]; (dose: 9.2 mg/kg/injection, schedule: Q04DX003 (ip), vehicle: acetone) 91 % of control [survivor count not shown]; (dose: 12.0 mg/kg/injection, schedule: Q01DX Z (ip), vehicle: methylcellulose (MC)) 106 [survivor count not shown] and 117 % of control [survivor count not shown]. The T/C is 96 % of control [survivor count not shown] (dose: 12.0 mg/kg/injection, schedule: Q04DX003 (ip), vehicle: saline); 126 % of control [survivor count not shown] (dose: 12.5 mg/kg/injection, schedule: Q01DX001 (ip), vehicle: saline); 100 % of control [survivor count not shown] (dose: 24.0 mg/kg/injection, schedule: Q04DX003 (ip), vehicle: saline).
